{
  "sequences": {"note": "By UniProt entry, the sequences of proteins in these tests, tags left out. Where a name states a change or a piece, a line headed by the entry shows the natural chain unless it says otherwise.", "UniProt P06748, whole entry": "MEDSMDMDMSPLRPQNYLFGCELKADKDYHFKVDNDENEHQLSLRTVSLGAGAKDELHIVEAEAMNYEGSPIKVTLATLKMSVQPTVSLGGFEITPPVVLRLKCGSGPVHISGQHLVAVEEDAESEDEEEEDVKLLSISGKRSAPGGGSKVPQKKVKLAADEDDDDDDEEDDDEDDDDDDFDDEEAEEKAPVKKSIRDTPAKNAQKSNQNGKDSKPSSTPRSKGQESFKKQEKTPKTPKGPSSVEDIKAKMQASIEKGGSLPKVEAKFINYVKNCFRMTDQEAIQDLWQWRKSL", "UniProt Q9BRJ7": "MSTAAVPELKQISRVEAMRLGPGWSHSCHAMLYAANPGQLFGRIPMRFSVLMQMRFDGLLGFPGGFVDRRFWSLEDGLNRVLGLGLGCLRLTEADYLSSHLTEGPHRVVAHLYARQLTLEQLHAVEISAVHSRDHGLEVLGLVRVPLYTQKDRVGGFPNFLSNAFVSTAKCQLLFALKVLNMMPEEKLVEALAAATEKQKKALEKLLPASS"},
  "source": "paper PMC5996148",
  "experiment_in_all_cases": "protein microarray (ProtoArray v5.0), streptavidin-Alexa Fluor 647",
  "settings_in_all_cases": "3'-biotin; 20 mM Tris (pH 7.5), 5 mM MgCl2, 100 mM KCl, 0.1% Tween-20, A/T-rich and random oligonucleotide blockers; temperature not stated; high values mean tight binding",
  "key": {"NFKBIB (human)": {"test_system": "NFKBIB (human)"}, "[1]": {"test_system": "NFU1 iron-sulfur cluster scaffold homolog, mitochondrial (human)"}, "NINJ2 (human)": {"test_system": "NINJ2 (human)"}, "NIPSNAP3B (human)": {"test_system": "NIPSNAP3B (human)"}, "NIT2 (human)": {"test_system": "NIT2 (human)"}, "NKG2D ligand 4 (human)": {"test_system": "NKG2D ligand 4 (human)"}, "NLRP2 (human)": {"test_system": "NLRP2 (human)"}, "NME1 (human)": {"test_system": "NME1 (human)"}, "NME5 (human)": {"test_system": "NME5 (human)"}, "NME6 (human)": {"test_system": "NME6 (human)"}, "NMNAT2 (human)": {"test_system": "NMNAT2 (human)"}, "NMT2": {"biological_target": "T1, NMT2 (UniProt O60551)", "T1 sequence": "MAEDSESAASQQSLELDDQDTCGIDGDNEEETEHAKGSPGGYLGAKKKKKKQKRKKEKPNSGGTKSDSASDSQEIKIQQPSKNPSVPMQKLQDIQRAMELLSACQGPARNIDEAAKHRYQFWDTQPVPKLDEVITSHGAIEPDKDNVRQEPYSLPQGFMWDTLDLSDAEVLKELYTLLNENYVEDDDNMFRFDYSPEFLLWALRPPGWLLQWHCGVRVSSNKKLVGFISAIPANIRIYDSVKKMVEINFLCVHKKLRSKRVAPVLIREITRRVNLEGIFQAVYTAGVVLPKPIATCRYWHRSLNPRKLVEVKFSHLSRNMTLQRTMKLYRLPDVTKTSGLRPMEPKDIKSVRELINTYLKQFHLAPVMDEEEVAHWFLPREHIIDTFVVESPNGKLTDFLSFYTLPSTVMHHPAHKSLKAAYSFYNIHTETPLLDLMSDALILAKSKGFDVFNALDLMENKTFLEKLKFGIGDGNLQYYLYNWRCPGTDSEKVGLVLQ"}, "NOLC1": {"biological_target": "T2, NOLC1 (UniProt Q14978)", "T2 sequence": "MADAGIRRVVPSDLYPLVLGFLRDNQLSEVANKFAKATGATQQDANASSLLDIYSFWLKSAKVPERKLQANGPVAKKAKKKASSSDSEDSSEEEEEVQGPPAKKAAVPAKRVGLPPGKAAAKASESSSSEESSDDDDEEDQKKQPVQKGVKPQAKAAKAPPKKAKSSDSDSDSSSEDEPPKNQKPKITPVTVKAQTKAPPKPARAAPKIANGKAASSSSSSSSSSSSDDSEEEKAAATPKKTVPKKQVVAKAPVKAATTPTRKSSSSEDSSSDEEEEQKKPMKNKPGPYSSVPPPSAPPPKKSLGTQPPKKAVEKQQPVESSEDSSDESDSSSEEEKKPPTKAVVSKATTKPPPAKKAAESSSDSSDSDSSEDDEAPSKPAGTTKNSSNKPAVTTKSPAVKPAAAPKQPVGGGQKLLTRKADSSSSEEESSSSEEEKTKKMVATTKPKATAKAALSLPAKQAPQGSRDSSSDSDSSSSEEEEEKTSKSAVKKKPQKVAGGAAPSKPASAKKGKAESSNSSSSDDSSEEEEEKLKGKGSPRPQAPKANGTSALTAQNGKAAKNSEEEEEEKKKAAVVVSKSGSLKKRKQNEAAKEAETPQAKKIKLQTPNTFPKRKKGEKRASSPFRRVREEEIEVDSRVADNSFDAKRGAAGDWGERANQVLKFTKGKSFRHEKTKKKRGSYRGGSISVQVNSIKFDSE"}, "NPL (human)": {"test_system": "NPL (human)"}, "NPM1": {"biological_target": "NPM1 (UniProt P06748)"}, "NRARP (human)": {"test_system": "NRARP (human)"}, "NRBF2 (human)": {"test_system": "NRBF2 (human)"}, "NTS (human)": {"test_system": "NTS (human)"}, "NUCB1 (human)": {"test_system": "NUCB1 (human)"}, "NUDT16L1": {"biological_target": "NUDT16L1 (UniProt Q9BRJ7)"}},
  "note": "The list shows a part of the results. For some assays here: The source does not settle which construct or isoform was used.",
  "data": [
    {"sequence": "GGTGACAGGGGTATGGGGAGGGG [G4-2 biotinylated (Ct1)]", "values": [
      {"measurement": "binding signal", "setting": "NFKBIB (human)", "value": -0.385, "unit": "z-score"},
      {"measurement": "binding signal", "setting": "[1]", "value": -0.391, "unit": "z-score"},
      {"measurement": "binding signal", "setting": "NINJ2 (human)", "value": -0.387, "unit": "z-score"},
      {"measurement": "binding signal", "setting": "NIPSNAP3B (human)", "value": -0.39, "unit": "z-score"},
      {"measurement": "binding signal", "setting": "NIT2 (human)", "value": -0.394, "unit": "z-score"},
      {"measurement": "binding signal", "setting": "NKG2D ligand 4 (human)", "value": -0.362, "unit": "z-score"},
      {"measurement": "binding signal", "setting": "NLRP2 (human)", "value": -0.372, "unit": "z-score"},
      {"measurement": "binding signal", "setting": "NME1 (human)", "value": -0.394, "unit": "z-score"},
      {"measurement": "binding signal", "setting": "NME5 (human)", "value": -0.394, "unit": "z-score"},
      {"measurement": "binding signal", "setting": "NME6 (human)", "value": -0.386, "unit": "z-score"},
      {"measurement": "binding signal", "setting": "NMNAT2 (human)", "value": -0.391, "unit": "z-score"},
      {"measurement": "binding signal", "setting": "NMT2", "value": 4.43, "unit": "z-score"},
      {"measurement": "binding signal", "setting": "NOLC1", "value": 3.37, "unit": "z-score"},
      {"measurement": "binding signal", "setting": "NPL (human)", "value": -0.397, "unit": "z-score"},
      {"measurement": "binding signal", "setting": "NPM1", "value": 3.73, "unit": "z-score"},
      {"measurement": "binding signal", "setting": "NRARP (human)", "value": -0.385, "unit": "z-score"},
      {"measurement": "binding signal", "setting": "NRBF2 (human)", "value": -0.399, "unit": "z-score"},
      {"measurement": "binding signal", "setting": "NTS (human)", "value": -0.375, "unit": "z-score"},
      {"measurement": "binding signal", "setting": "NUCB1 (human)", "value": -0.372, "unit": "z-score"},
      {"measurement": "binding signal", "setting": "NUDT16L1", "value": 3.08, "unit": "z-score"}
    ]}
  ]
}
